Results are given in words; binding and its absence hold for the method and conditions named. In cells and extracts the contact can be indirect. Some binding calls cover weakened binding; strength is not graded here. Values belong to the substance of their own block, whether it stands above or below them.
How the values were obtained:
Flag-METTL3 = Flag-METTL3 (UniProt Q86U44); test: co-IP; HepG2 cells co-transfected with Flag-METTL3 and HA-B56α plasmids for 24 h; Co-IP with anti-Flag or anti-HA antibodies, WB with anti-HA and anti-Flag
[1] = biological target: METTL3, endogenous in mouse liver (mouse (endogenous in liver tissue)) (UniProt Q8C3P7); test: co-IP; liver tissue of HBx-Tg mice and wild-type controls, with or without STM2457 (50 mg/kg i.p. daily, 14 days)
[2] = biological target: wild-type METTL3 overexpressed in HepG2 cells (METTL3-WT) (UniProt Q86U44); test: co-IP; IP with anti-METTL3 or anti-B56α antibodies; HepG2 cells overexpressing B56α (B56α-OE) or METTL3-WT
[3] = biological target: METTL3, endogenous in HepG2 cells (human (endogenous in HepG2)) (UniProt Q86U44); test: co-IP; IP with anti-METTL3 and with anti-B56α antibodies; HepG2 cells transfected with or without pcDNA3.1-HBx plasmid (1 μg/mL, 24 h); endogenous proteins
[4] = biological target: METTL3, endogenous in HepG2 cells (human (endogenous in HepG2)) (UniProt Q86U44); test: co-IP; IP with anti-METTL3 or anti-B56α antibodies; HepG2 cells overexpressing B56α (B56α-OE) or METTL3-WT

By UniProt entry, the sequences of proteins in these tests, tags left out.
UniProt Q86U44: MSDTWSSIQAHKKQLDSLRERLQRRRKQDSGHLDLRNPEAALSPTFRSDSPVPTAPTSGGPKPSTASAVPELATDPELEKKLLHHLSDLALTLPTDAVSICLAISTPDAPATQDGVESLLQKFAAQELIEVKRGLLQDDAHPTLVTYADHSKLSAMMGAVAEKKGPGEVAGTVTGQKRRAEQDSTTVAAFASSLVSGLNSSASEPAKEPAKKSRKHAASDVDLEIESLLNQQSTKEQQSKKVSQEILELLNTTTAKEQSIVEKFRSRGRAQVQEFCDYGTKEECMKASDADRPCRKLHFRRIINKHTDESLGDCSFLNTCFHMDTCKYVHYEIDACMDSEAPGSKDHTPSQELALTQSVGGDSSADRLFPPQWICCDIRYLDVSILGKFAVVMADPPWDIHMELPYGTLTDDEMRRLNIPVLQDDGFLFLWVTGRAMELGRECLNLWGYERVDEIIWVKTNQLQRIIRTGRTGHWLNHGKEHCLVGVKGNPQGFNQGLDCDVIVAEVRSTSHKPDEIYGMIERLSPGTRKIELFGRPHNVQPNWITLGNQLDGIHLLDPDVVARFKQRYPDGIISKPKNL
UniProt Q8C3P7: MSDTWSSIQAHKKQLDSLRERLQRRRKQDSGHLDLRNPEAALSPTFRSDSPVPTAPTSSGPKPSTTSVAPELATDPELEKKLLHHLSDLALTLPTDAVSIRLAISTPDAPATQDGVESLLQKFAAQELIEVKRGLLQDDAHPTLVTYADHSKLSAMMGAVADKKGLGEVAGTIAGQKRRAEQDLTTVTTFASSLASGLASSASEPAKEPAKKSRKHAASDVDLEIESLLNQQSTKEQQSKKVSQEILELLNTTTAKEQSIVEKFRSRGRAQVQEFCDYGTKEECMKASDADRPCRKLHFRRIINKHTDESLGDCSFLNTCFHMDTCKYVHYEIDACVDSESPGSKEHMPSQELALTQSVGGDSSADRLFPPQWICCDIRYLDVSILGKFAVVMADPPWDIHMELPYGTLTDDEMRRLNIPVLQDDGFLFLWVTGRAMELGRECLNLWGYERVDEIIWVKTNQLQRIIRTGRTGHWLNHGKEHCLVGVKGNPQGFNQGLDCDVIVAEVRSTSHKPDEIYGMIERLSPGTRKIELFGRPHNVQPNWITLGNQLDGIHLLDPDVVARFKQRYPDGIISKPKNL
UniProt Q15172: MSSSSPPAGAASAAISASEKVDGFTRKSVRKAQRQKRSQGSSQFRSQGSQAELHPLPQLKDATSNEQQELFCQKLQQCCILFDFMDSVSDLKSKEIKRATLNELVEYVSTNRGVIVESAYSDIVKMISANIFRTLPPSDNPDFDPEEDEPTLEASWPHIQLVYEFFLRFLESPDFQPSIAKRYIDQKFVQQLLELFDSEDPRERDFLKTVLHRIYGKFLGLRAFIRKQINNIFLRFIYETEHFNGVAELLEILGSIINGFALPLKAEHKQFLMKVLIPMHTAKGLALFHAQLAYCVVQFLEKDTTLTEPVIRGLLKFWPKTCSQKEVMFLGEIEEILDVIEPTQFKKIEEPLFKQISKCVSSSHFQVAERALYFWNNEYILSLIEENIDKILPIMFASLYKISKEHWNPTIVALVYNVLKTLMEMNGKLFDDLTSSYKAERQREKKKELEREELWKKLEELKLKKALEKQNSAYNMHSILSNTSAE
UniProt Q6PD03: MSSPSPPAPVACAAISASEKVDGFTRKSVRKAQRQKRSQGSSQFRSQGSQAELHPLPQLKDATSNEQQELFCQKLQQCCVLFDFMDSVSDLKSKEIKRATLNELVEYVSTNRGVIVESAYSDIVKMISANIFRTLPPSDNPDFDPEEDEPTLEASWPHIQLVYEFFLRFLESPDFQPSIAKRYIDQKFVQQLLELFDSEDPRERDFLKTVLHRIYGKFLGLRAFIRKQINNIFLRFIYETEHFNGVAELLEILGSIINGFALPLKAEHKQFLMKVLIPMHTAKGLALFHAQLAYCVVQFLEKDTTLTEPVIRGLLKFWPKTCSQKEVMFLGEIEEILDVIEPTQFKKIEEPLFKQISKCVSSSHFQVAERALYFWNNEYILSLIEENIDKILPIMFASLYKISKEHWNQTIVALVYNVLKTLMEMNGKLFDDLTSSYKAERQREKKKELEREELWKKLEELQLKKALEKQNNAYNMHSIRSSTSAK

binding (Flag-METTL3): binds
Substance: HA-B56α (from UniProt Q15172 1-486)

binding [1]: binds
Substance: PP2A B56α subunit, endogenous in mouse liver (from UniProt Q6PD03 1-486)

binding [2]: binds
binding [3]: binds
Substance: PP2A B56α subunit, endogenous in HepG2 cells (from UniProt Q15172 1-486)

binding [4]: binds
Substance: B56α overexpressed in HepG2 cells (B56α-OE) (from UniProt Q15172 1-486)

From publication PMC12500908
